Measurements as given in the supplement of paper PMC10849652.
Some of the results follow. Residues, ends and D or L forms follow the SMILES beside them. *: point of attachment. Cbz = O=C(OCc1ccccc1)*

The chains behind the UniProt entries cited, without tags or fusion partners. Where a name states a change or a piece, a line headed by the entry shows the natural chain unless it says otherwise.
UniProt Q9P086: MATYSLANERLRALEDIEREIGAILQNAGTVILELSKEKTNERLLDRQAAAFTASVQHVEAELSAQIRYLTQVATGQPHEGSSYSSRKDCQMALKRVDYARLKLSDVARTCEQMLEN
UniProt Q9H204: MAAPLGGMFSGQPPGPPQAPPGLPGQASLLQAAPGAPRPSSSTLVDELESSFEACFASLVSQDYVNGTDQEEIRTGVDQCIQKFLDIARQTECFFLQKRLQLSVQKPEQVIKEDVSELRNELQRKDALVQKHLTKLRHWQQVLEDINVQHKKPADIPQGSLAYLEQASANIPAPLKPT
UniProt P48740: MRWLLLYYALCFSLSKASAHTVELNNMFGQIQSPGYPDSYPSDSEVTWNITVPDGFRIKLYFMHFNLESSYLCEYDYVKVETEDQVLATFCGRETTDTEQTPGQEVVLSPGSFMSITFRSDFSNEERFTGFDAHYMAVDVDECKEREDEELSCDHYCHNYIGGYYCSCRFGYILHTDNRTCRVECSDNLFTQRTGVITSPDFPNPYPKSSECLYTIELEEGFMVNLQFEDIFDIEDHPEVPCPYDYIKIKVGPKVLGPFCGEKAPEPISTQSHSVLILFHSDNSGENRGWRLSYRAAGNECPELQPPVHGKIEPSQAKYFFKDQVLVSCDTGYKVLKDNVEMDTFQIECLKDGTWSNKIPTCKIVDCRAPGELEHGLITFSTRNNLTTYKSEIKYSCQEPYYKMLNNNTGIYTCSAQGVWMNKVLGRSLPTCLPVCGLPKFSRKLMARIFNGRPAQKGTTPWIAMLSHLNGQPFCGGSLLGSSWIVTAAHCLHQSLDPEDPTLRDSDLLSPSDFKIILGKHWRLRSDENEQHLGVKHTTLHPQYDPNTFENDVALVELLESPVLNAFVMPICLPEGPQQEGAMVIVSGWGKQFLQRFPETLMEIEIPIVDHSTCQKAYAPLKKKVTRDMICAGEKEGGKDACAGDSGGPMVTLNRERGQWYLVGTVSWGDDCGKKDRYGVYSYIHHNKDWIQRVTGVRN
UniProt Q6ZSS7: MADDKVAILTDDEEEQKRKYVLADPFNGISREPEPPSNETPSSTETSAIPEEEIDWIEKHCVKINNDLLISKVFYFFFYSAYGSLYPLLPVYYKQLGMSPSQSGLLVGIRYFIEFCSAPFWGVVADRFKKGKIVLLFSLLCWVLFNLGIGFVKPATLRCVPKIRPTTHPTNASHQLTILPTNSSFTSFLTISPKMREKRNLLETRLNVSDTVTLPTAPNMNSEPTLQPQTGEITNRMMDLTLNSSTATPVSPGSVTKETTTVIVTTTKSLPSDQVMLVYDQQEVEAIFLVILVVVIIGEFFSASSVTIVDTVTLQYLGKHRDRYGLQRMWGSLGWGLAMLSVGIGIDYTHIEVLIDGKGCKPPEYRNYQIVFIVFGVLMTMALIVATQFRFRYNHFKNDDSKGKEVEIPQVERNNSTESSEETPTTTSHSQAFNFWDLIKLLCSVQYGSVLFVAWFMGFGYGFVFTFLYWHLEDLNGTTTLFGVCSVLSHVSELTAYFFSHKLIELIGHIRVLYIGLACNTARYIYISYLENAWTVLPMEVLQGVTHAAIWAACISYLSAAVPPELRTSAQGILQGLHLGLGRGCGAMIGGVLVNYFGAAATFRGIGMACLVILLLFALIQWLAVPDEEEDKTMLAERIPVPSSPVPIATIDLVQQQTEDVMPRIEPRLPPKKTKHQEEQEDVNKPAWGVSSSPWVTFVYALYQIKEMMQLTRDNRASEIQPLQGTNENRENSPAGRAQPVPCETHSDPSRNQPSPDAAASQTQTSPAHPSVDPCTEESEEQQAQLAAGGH
UniProt Q9Y3C7: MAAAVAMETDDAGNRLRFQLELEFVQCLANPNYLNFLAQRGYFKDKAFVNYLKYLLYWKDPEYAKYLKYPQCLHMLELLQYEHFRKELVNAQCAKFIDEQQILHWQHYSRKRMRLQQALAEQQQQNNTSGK
UniProt Q6UX53: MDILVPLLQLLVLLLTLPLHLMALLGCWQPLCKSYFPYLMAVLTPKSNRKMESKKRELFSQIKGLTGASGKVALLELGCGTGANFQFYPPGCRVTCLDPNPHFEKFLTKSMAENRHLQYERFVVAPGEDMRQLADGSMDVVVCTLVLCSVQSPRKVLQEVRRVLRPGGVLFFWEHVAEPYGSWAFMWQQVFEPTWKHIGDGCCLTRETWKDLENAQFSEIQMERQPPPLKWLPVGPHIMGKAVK
UniProt Q8TDD5: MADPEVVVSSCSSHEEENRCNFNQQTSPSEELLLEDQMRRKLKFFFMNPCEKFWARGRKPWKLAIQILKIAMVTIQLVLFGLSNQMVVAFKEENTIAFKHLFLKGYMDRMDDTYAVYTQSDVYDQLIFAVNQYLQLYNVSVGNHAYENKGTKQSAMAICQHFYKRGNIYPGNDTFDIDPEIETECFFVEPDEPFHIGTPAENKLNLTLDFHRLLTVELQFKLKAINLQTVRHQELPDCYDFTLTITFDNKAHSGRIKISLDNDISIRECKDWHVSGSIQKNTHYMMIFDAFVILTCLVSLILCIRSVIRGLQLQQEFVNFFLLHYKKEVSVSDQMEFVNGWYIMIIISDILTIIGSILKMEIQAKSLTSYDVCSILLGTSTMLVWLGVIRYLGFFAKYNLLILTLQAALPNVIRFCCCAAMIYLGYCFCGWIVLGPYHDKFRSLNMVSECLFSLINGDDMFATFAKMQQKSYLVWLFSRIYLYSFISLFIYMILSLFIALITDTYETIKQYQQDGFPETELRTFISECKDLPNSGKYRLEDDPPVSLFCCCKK
UniProt Q5U5Q3: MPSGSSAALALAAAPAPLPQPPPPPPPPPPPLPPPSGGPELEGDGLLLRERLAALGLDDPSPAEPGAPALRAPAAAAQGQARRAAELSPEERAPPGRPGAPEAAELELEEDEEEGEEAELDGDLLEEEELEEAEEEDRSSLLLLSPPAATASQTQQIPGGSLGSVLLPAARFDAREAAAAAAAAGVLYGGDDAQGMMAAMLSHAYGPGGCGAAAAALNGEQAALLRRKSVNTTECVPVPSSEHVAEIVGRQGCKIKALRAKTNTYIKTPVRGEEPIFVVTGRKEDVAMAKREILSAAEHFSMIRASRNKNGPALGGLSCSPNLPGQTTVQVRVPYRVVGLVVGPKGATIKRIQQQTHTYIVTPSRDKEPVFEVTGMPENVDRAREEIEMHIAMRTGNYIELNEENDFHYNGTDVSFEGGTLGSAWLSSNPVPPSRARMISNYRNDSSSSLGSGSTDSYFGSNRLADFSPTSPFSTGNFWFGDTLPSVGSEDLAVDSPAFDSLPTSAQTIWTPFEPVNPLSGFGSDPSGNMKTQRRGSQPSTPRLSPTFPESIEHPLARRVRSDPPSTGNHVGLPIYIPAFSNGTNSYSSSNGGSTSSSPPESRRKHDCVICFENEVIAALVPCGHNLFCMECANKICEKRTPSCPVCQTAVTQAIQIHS
UniProt Q7Z7M0: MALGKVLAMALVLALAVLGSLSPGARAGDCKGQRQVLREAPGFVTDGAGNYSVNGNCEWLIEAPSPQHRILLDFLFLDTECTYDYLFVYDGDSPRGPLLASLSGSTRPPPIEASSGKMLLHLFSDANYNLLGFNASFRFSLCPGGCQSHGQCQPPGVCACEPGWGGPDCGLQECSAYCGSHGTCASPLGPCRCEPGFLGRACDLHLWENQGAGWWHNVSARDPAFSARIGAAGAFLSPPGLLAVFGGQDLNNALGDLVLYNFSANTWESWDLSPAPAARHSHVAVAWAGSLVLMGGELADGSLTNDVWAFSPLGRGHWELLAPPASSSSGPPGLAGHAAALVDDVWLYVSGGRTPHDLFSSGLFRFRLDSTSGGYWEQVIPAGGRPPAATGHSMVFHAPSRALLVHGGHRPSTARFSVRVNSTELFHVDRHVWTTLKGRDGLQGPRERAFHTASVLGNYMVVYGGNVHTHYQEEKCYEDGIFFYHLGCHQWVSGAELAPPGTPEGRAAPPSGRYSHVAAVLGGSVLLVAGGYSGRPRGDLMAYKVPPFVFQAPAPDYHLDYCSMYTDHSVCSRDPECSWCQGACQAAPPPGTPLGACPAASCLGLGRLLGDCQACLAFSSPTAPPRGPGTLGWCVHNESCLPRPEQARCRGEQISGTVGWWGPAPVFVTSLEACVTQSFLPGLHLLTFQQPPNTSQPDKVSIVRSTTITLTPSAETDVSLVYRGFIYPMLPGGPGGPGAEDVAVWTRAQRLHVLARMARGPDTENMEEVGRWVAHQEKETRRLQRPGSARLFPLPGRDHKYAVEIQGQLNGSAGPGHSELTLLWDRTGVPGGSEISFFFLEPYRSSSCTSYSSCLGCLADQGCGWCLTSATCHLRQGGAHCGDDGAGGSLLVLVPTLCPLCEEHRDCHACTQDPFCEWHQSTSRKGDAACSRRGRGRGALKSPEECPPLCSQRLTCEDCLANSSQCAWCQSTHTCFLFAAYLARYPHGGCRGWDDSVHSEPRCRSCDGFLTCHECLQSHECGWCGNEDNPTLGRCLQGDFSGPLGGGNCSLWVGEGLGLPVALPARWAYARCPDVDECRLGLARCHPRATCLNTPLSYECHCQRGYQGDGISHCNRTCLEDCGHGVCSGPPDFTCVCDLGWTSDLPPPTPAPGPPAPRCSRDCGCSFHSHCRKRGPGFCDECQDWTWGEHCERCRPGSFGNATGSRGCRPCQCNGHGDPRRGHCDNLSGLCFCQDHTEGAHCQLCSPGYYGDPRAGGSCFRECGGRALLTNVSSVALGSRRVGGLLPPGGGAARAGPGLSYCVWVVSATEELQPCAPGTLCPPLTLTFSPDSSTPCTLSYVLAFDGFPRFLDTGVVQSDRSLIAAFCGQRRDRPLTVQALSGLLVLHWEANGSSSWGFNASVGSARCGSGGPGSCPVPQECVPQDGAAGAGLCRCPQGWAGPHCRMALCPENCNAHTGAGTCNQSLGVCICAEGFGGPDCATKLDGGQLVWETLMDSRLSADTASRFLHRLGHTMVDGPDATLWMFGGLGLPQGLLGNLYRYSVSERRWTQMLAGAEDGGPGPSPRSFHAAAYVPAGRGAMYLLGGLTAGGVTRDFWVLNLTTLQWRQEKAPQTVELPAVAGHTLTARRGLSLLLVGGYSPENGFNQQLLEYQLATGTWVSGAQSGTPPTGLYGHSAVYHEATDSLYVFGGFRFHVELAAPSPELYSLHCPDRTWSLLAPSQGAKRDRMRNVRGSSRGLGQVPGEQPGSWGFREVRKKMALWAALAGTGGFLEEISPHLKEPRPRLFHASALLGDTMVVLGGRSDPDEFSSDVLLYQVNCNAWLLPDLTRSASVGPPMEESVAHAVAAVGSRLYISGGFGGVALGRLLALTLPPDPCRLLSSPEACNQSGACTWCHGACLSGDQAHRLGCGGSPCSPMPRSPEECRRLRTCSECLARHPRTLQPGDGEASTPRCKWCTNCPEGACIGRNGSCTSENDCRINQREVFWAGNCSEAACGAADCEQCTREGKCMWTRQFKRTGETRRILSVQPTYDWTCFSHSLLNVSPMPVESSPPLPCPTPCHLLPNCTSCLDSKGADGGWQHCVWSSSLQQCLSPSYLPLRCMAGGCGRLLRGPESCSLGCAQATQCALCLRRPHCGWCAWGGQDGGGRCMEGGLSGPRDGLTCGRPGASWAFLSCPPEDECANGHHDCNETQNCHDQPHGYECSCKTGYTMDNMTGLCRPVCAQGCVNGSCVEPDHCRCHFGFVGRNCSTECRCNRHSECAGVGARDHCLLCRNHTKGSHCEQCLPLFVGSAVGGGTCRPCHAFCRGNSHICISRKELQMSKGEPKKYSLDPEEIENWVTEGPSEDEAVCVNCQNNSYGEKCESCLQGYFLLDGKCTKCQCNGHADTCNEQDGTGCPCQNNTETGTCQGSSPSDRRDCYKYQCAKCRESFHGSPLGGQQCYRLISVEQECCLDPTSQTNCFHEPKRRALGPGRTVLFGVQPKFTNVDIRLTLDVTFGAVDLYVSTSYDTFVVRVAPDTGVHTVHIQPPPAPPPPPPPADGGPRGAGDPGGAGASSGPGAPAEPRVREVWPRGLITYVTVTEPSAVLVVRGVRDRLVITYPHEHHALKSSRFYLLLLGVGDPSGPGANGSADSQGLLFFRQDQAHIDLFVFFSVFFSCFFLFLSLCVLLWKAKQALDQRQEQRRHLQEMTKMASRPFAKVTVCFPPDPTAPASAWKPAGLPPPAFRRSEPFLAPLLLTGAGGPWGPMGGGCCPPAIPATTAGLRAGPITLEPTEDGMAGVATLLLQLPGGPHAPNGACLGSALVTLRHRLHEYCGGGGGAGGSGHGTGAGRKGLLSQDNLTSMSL
UniProt Q5VZF2: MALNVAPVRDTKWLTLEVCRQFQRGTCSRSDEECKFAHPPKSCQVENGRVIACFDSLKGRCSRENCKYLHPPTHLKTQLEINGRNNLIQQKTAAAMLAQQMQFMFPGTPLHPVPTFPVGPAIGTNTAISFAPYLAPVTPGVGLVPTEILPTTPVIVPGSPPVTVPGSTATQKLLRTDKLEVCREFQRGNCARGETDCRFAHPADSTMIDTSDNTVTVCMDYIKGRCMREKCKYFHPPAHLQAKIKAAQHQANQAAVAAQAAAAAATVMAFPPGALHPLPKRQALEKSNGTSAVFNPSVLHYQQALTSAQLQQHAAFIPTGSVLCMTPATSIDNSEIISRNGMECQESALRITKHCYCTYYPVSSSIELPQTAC

Key:
Assay in all cases: log2 fold change, soluble protein after heating vs DMSO (PISA); higher = thermal stabilisation; K562 cells, 10 uM, 30 min; active = over 0.2 and 3.5 SD of the protein, either way, in both replicates (recomputed)
[1] = compound: CC(=O)c1cnc2ccc(-c3cc(Cl)c(O)c(Cl)c3)nc2c1N[C@H]1CC[C@H](CN(C)C)CC1
Procedure, shortened: (§1)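 Values are thermal stability changes relative to control samples and are taken from duplicates. They are stated as log2 fold changes. Before quantification by TMTpro 16plex LC-MS/MS with equalised channel sums, K562 cells at 2×10^6 cells/mL were treated with 10 μM compound for 30 min, heated in aliquots for 3 min across 48°C-58°C, pooled, extracted in PBS with 0.5% NP-40 at 4°C, and centrifuged at 21,000xg for 90 min to give the soluble supernatant.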

ralimetinib = compound: CC(C)(C)Cn1c(N)nc2ccc(-c3[nH]c(C(C)(C)C)nc3-c3ccc(F)cc3)nc21 [ralimetinib]
Procedure, shortened: as §1

[2] = compound: CC(C)C[C@@H](C=O)NC(=O)[C@H](CC(C)C)NC(=O)[C@H](CC(C)C)NC(=O)OCc1ccccc1
Procedure, shortened: as §1

[3] = compound: CC1=C(C(CC(=O)N1)C2=CC=C(C=C2)C(F)(F)F)C(=O)NC3=C(C=C4C(=C3)C=NN4)F
Procedure, shortened: as §1

[4] = compound: CC1=C(C2=C(C=C1)C(=O)C3=CC=CC=C3N2CCCN)C
Procedure, shortened: as §1

[5] = compound: CC1=C(C=C(C=C1)NC(=O)C2=CC(=CC=C2)N(C)C)NC(=O)C3=CC=C(C=C3)O
Procedure, shortened: as §1

[6] = compound: CC1=CC=C(C=C1)SC2=C3C=C(SC3=CN=C2)C(=O)N
Procedure, shortened: as §1

[7] = compound: CCCS(=O)(=O)Nc1ccc(F)c(C(=O)c2c[nH]c3ncc(Cl)cc23)c1F
Procedure, shortened: as §1

[8] = compound: CCCc1cc(C)[nH]c(=O)c1CNC(=O)c1cc(-c2ccnc(N3CCN(C)CC3)c2)cc2c1cnn2C(C)C
Procedure, shortened: as §1

vemurafenib = compound: CCCS(=O)(=O)Nc1ccc(F)c(C(=O)c2c[nH]c3ncc(-c4ccc(Cl)cc4)cc23)c1F [vemurafenib]
Procedure, shortened: as §1

IRAK-1-4 Inhibitor I = compound: C1COCCN1CCN2C3=CC=CC=C3N=C2NC(=O)C4=CC(=CC=C4)[N+](=O)[O-] [IRAK-1-4 Inhibitor I]
Procedure, shortened: as §1

[9] = compound: CC(C)C1=C2N=C(C=C(N2N=C1)NCC3=CC=CC=C3)NCCCCCCN
Procedure, shortened: as §1

pinometostat = compound: CC(C)N(C[C@H]1O[C@@H](n2cnc3c(N)ncnc32)[C@H](O)[C@@H]1O)[C@H]1C[C@@H](CCc2nc3cc(C(C)(C)C)ccc3[nH]2)C1 [pinometostat]
Procedure, shortened: as §1

[10] = compound: CC1=NC(=CC=C1)C2=C(N=C(N2)C(C)(C)C)C3=CC4=NC=CN=C4C=C3
Procedure, shortened: as §1

givinostat = compound: CCN(CC)Cc1ccc2cc(COC(=O)Nc3ccc(C(=O)NO)cc3)ccc2c1 [givinostat]
Procedure, shortened: as §1

ibrutinib = compound: C=CC(=O)N1CCC[C@@H](n2nc(-c3ccc(Oc4ccccc4)cc3)c3c(N)ncnc32)C1 [ibrutinib]
Procedure, shortened: as §1

[11] = compound: CC1=C(C=C(C=C1)NC(=O)C2=CC(=CC=C2)C(C)(C)C#N)NC3=CC4=C(C=C3)N=CN(C4=O)C
Procedure, shortened: as §1

barasertib = compound: CCN(CCCOc1ccc2c(Nc3cc(CC(=O)Nc4cccc(F)c4)[nH]n3)ncnc2c1)CCOP(=O)(O)O [barasertib]
Procedure, shortened: as §1

[12] = compound: CC(C)(O)CC(=O)NCCn1ccc2ncnc(Nc3ccc(Oc4cccc(C(F)(F)F)c4)c(Cl)c3)c21
Procedure, shortened: as §1

Nexturastat A = compound: CCCCN(Cc1ccc(C(=O)NO)cc1)C(=O)Nc1ccccc1 [Nexturastat A]
Procedure, shortened: as §1

Measured: log2 fold change

MED21 (UniProt Q13503)
inactive: [1] -0.046 | ralimetinib -0.023 | [2] -0.272 | [3] -0.003 | [4] 0.194 | [5] 0.021 | [6] -0.159 | [7] -0.069 | [8] -0.007

MATK isoform 2 (UniProt P42679)
inactive: [3] -0.131 | vemurafenib 0.074

MED11 (UniProt Q9P086)
inactive: IRAK-1-4 Inhibitor I -0.063 | [9] -0.002 | pinometostat -0.115 | [4] 0.235 | [10] 0.126 | [8] 0.133 | givinostat -0.131

MED28 (UniProt Q9H204)
inactive: ibrutinib -0.111 | [1] -0.109 | ralimetinib -0.017 | [9] 0.037 | [2] -0.065 | [3] 0.052 | [4] 0.138 | [11] 0.004 | [5] -0.071 | [6] -0.087 | [7] 0.099 | [8] -0.009 | givinostat -0.144 | barasertib -0.006

MASP1 isoform 2 (UniProt P48740)
inactive: [11] -0.08

MFSD6 (UniProt Q6ZSS7)
inactive: ibrutinib -0.11 | [1] -0.106 | [12] -0.043 | [9] 0.141 | [3] 0.018 | [11] -0.036 | Nexturastat A 0.058 | vemurafenib 0.045 | [8] -0.17 | givinostat -0.026 | barasertib 0.143

MED31 (UniProt Q9Y3C7)
inactive: IRAK-1-4 Inhibitor I 0.003 | ralimetinib -0.056 | [2] 0.069 | pinometostat 0.041 | [3] -0.085 | [5] -0.021 | [10] 0.06 | vemurafenib 0.105 | [8] -0.044

METTL7B (UniProt Q6UX53)
inactive: [1] 0.049 | [12] 0.011 | [9] 0.042 | Nexturastat A 0.155 | givinostat -0.012

MFAP3 (UniProt P55082)
inactive: ibrutinib -0.027 | [1] -0.067 | [12] -0.165 | [4] -0.111 | [11] 0.038 | Nexturastat A 0.11 | vemurafenib -0.115 | barasertib 0.05

MED27 (UniProt Q6P2C8)
inactive: ibrutinib -0.421 | [1] -0.271 | [12] -0.077 | [9] 0.117 | [3] 0.123 | [11] -0.003 | Nexturastat A 0.026 | [8] 0.046 | givinostat 0.046 | barasertib 0.126

MED26 (UniProt O95402)
inactive: IRAK-1-4 Inhibitor I 0.017 | [1] 0.062 | ralimetinib 0.084 | [2] -0.056 | pinometostat 0.123 | [11] -0.024 | [5] 0.123 | [6] 0.051 | [10] -0.105 | vemurafenib -0.016 | [7] -0.11

MAU2 (UniProt Q9Y6X3)
inactive: ralimetinib -0.052 | [9] -0.264 | [2] -0.12 | [4] 0.126 | [11] -0.454 | [5] 0.013 | [6] 0.059 | vemurafenib 0.101 | [7] 0.031 | [8] -0.073 | givinostat 0.115

METTL9 (UniProt Q9H1A3)
inactive: ibrutinib -0.031 | [1] 0.16 | ralimetinib -0.022 | [9] -0.01 | [2] 0.11 | [4] 0.082 | [5] 0.016 | [6] -0.028 | vemurafenib -0.01 | [7] 0.06 | [8] 0.131 | givinostat 0.058 | barasertib 0.19

MCOLN3 (UniProt Q8TDD5)
inactive: ibrutinib -0.17 | ralimetinib -0.057 | [9] 0.019 | [2] 0.029 | [4] 0.08 | [5] 0.013 | [6] 0.15 | [7] 0.014 | [8] -0.481 | givinostat 0.221 | barasertib -0.171

MEX3C (UniProt Q5U5Q3)
inactive: ralimetinib 0.081 | [2] 0.015 | [5] 0.009 | [8] -0.062

MFSD9 (UniProt Q8NBP5)
inactive: [9] 0.089 | [3] 0.022 | [6] 0.004 | [7] -0.127 | [8] 0.003 | givinostat -0.059

MEF2A (UniProt Q02078)
inactive: [12] -0.072 | [9] 0.043 | [3] -0.057 | [4] 0.005 | [11] -0.34 | [6] -0.04 | Nexturastat A -0.021 | [7] 0.059 | givinostat -0.011

MEGF8 (UniProt Q7Z7M0)
inactive: IRAK-1-4 Inhibitor I 0.037 | [1] -0.332 | pinometostat -0.12 | [3] 0.003 | [4] 0.532 | [10] 0.009

MBNL2 (UniProt Q5VZF2)
inactive: IRAK-1-4 Inhibitor I 0.095 | [1] 0.047 | ralimetinib 0.027 | [9] -0.02 | [2] 0.099 | pinometostat -0.029 | [5] -0.005 | [6] -0.002 | [10] -0.044 | [7] -0.042 | givinostat 0.044
